# Experimental data as given in PubChem BioAssay AID540275 (National Center for Advancing Translational Sciences (NCATS), 2011).
# By UniProt entry, the sequences of proteins in these tests, tags left out.
# UniProt Q8NER1, whole entry, looked up: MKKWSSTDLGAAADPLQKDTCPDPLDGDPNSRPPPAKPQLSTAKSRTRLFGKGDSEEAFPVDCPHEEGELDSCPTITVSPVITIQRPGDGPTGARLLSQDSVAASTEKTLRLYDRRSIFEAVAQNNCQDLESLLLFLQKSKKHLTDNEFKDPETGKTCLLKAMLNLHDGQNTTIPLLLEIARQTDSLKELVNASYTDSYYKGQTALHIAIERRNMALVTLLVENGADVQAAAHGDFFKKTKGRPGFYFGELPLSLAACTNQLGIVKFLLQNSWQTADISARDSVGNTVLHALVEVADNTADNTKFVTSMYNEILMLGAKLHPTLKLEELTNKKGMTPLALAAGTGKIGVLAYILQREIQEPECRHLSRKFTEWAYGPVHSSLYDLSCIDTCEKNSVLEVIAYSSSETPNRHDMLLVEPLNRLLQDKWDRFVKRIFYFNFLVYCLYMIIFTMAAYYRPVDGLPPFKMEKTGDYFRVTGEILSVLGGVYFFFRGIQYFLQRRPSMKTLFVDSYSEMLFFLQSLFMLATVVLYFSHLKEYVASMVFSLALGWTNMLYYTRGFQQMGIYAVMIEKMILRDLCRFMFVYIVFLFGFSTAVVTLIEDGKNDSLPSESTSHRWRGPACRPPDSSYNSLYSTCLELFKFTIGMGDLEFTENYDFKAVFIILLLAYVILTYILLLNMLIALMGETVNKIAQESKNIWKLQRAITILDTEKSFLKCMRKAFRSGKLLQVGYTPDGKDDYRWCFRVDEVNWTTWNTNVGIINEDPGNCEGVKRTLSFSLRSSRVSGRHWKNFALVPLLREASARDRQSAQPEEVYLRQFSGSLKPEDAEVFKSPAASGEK
# The campaign covered roughly 320,000 compounds. About 620 (0.19%) were called active. The shares of active, inactive and inconclusive entries below differ from those in the screen. Rule as the data show it: active = activation above about 80%; inconclusive = between about 30% and that limit; inactive = weaker than that.
# Target: Transient receptor potential cation channel subfamily V member 1 (Homo sapiens) (UniProt Q8NER1)
# Assay: HTS Assay for Compounds that Act as Agonists of the Vanilloid Receptor 1; also: 0% is about no effect
# Settings: TRPV1-expressing cells, Fluo-8 calcium influx, agonist mode; at 8.33 µM, stronger effect = higher value
# Procedure, shortened: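 Cells expressing TRPV1 were dye-loaded with Fluo-8 and read kinetically: 10 s baseline, 3 min after compound (agonist portion), then 2 min after EC20 capsaicin (allosteric enhancer portion). Calcium-bound dye fluorescence at 480/520 nm.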
row,Compound,activation
1,CC1(c2ccc(NC(=O)c3ccccc3F)cc2)CC1(Cl)Cl (stereo unspecified),inconclusive: 49.4%
2,Cc1nc(NC(=S)NC(=O)COc2ccc(Cl)cc2)ccc1Br,inactive: 3.71%
3,COc1ccccc1N(CC(=O)NC1CCCC1)C(=O)c1oc(C(C)(C)C)cc1C,inconclusive: 32.1%
4,COc1cccc(NC(=O)CCN2C(=O)c3ccccc3Sc3ncccc32)c1,inactive: -0.194%
5,COC(=O)c1ccc(C(=O)OC)c(NC(=S)N2CCCC(C)C2)c1 (stereo unspecified),inconclusive: 32.3%
6,C=CCn1cc(C(=O)NCC2CCCO2)c(=O)c2cc(S(=O)(=O)N3CCCCCC3)ccc21 (stereo unspecified),inconclusive: 36.7%
7,COc1ccc2oc(=O)cc(-c3cc4ccccc4o3)c2c1,inconclusive: 39.2%
8,O=C(Nc1ccc(N2CCCC2)c(Cl)c1)c1ccc(Br)o1,inconclusive: 57.3%
9,O=C(NCCC1=CCCCC1)NC1CCCCC1,inconclusive: 47%
10,C#CCOCCOCCOCCNc1nc(N2CCN(C(=O)[C@H](CCCCN)n3cc(C(N)CO)nn3)CC2)nc(N2CCN(C(=O)[C@H](CCC(=O)O)n3cc(C(N)CC(C)C)nn3)CC2)n1 (stereo partly specified),inactive: -4.39%
11,O=C(Nc1cc(N2CCOCC2)ncn1)NC1(C(F)(F)F)Oc2ccccc2O1,inconclusive: 56.9%
12,CCOC(=O)C1=NN(c2ccccc2)C2(S1)SC(C(C)=O)=C(C)N2c1ccccc1 (stereo unspecified),inconclusive: 37.8%
13,Cc1ccc(C(=O)NC(=S)/C=C2\N(C)c3ccccc3C2(C)C)cc1,inconclusive: 51.7%
14,COc1ccc2oc(C(=O)OCC(=O)NCc3ccc(OC)c(OC)c3)c(C)c2c1,inconclusive: 57.6%
15,O=C(NCC(c1ccco1)N1CCCCC1)C(c1ccccc1)c1ccccc1 (stereo unspecified),inconclusive: 30.4%
16,O=c1c2ccccc2ncn1Cc1ccc(Cl)c(Cl)c1,inactive: 4.37%
17,Cc1ccc(S(=O)(=O)NC(CC(C)C)C(=O)N2CCCCCCC2)cc1 (stereo unspecified),inconclusive: 30.2%
18,O=C(CSc1nc2ccccc2s1)N1c2ccccc2Sc2ccc(C(F)(F)F)cc21,inactive: -1.32%
19,CC(CCc1ccccc1)NC(=O)c1ccc(Br)cc1 (stereo unspecified),inconclusive: 38.3%

# Random excerpt: 3 records from the list.
row,Compound,activation
16,O=c1c2ccccc2ncn1Cc1ccc(Cl)c(Cl)c1,inactive: 4.37%
1,CC1(c2ccc(NC(=O)c3ccccc3F)cc2)CC1(Cl)Cl (stereo unspecified),inconclusive: 49.4%
3,COc1ccccc1N(CC(=O)NC1CCCC1)C(=O)c1oc(C(C)(C)C)cc1C,inconclusive: 32.1%

# Next part:

row,Compound,activation
1,CCCCc1ccc(NC(=O)COc2ccc(C(=O)Nc3ccccc3OCC)cc2)cc1,inactive: -0.0966%
2,CCC/C(=N/NC(=O)c1cccc(Cl)c1)c1ccccc1,inconclusive: 49.6%
3,Clc1ccc(CN2CC[C@H]3C=CCc4cccc(c43)C2)cc1,inactive: 0.68%
4,COc1ccc(N2CCN(C(=S)NC(C)c3ccccc3)CC2)cc1 (stereo unspecified),inconclusive: 30%
5,COc1ccccc1NC(=O)C(=O)N/N=C/c1cccs1,inconclusive: 42.9%
6,O=C(Nc1ccc(F)cc1)c1ccc2snnc2c1,active: 81.8%
7,CCCOC(=O)c1ccc(NC(=O)Cc2cccs2)cc1,inconclusive: 49.7%
8,Cc1ccc(CSCC(=O)Nc2ccc3c(c2)OCO3)cc1,inconclusive: 58%
9,O=C(NCCO)c1ccc(Oc2ccc(C(F)(F)F)cc2[N+](=O)[O-])cc1,inconclusive: 76.8%
10,CCOc1cc(N2CCOCC2)c(OCC)cc1NC(=O)CCS(=O)(=O)c1ccc(Cl)cc1,inconclusive: 31.7%
11,O=C(O)/C=C\C(=O)Nc1ccc(Oc2ccccc2)cc1,inactive: 0.825%
12,O=C(c1cccc(F)c1)N1CCCN(C(=O)c2cccc(F)c2)CC1,inactive: -4.77%
13,Cc1ccc2nc(-c3ccccn3)cc(C(=O)Nc3ccc(S(=O)(=O)N4CCOCC4)cc3)c2c1,inconclusive: 41.5%
14,Cc1ccc2nc(N(CCN(C)C)C(=O)/C=C/c3cccs3)sc2c1,inactive: -4.03%
15,Cc1ccc(C)c(NC(=O)C2C3CCCC2C3c2ccccc2)c1 (stereo unspecified),inconclusive: 36%
16,COc1cccc(-c2nn(-c3ccccc3)cc2CN(C)C(C)c2ccon2)c1 (stereo unspecified),inconclusive: 33.1%
17,O=C(Nc1ccc2oc(-c3ccccc3)nc2c1)c1ccncc1,inconclusive: 52.8%
18,O=C(N/N=C/C=C\c1ccco1)c1ccccn1,inconclusive: 40.3%
19,CCn1cc(C(=O)NCc2ccco2)c(=O)c2cc(S(=O)(=O)N3CCCC3)ccc21,inconclusive: 42.4%

row,Compound,activation
1,COc1ccc(C2=[N+]([O-])C(C)(C)C(c3ccccc3)=N2)cc1,inconclusive: 43.8%
2,N#Cc1ccc(C(=O)Nc2ccc3ccccc3c2)cc1,inconclusive: 63.9%
3,C/C(=N\NC(=O)C1CC1c1ccccc1)c1cccc([N+](=O)[O-])c1 (stereo unspecified),inconclusive: 34.2%
4,CC(C)(C)c1ccc(/C=C/C(=O)N2CCc3ccccc3C2)cc1,inconclusive: 67%
5,O=C1/C(=C/c2ccc([N+](=O)[O-])cc2)CCc2ccccc21,inactive: 5.62%
6,CN(C)c1ccc(NC(=O)/C=C/c2ccccc2Cl)cc1,inconclusive: 50.3%
7,O=C(c1cc(S(=O)(=O)N2CCN(c3ccccc3)CC2)ccc1Cl)N1CCCCCCC1,inconclusive: 44.5%
8,C/[N+]([O-])=C\c1cccc(OCCN2CCN(c3ncc(C(F)(F)F)cc3Cl)CC2)c1,inactive: 20.4%
9,O=C1Nc2ccccc2Nc2ccc([N+](=O)[O-])cc21,inactive: -4.46%
10,O=C(NCC(O)c1ccccc1)c1ccc(Cl)c(S(=O)(=O)N2CCCC2)c1 (stereo unspecified),inactive: 22.4%
11,Cc1cc(C)c([N+](=O)[O-])cc1-c1ccc(/C=N/c2c(-c3ccco3)nc3ccccn23)o1,inactive: -0.579%
12,Cc1ccc(C(=O)Nc2nccs2)cc1S(=O)(=O)N1CCCCC1,inconclusive: 30.1%
13,CN(C)S(=O)(=O)c1cccc(NC(=S)NCc2ccco2)c1,inactive: -2.98%
14,CC1CCCC(NC(=O)CCC(=O)c2ccc(F)cc2)C1C (stereo unspecified),inconclusive: 37.9%
15,CCN(CC)CC(=O)Nc1cc(N(C)C)nc2ccccc12,inactive: 1.79%
16,CCCCNC(=O)N1CCN(c2ccnc3cc(Cl)ccc23)CC1,inconclusive: 55.6%
17,COc1cc(C(c2c(NC(=O)c3ccco3)sc(C)c2C)N2CCOCC2)cc(OC)c1OC (stereo unspecified),inconclusive: 47.4%
18,CC(C)Oc1cccc(C(=O)NC(=S)Nc2ccccc2)c1,inactive: 2.17%
